Out of some 52,000 sequences screened, about 210 (0.4%) were called active.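 How the source made its calls: active means gene whose silencing raises cell survival under the drug, median off-target-corrected z-score across its silencing RNAs 2 or more; inactive means the rest.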 Some of the results follow.

The assay is described as follows: Resistance to Poly (ADP-Ribose) Polymerase inhibitor: Gene Identification via Genome-wide siRNA Screen. The following applies: mouse BRCA2 R2336H ES cells, olaparib, CellTiter-Glo viability; hits give high values. The method, boiled down:
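Mouse BRCA2 R2336H ES cells were reverse-transfected with siRNA (20 nM final), treated at 48 h with 500 nM olaparib, and read by CellTiter-Glo after 72 h. Scores: MAD-based z per siRNA, median per gene, seed off-target correction.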
Take GGGACCUGUCGUCAGACUUTT against Gnb3: the z-score was inactive: -1.39.

Take CCGAAAUUUUGAGUACUGUTT against V1re10: the z-score was inactive: 1.36.

Take “GGACCAUCUGUCCACAGUUTT against 9030617O03Rik”: the z-score was inactive: -2.05.

Regarding GGCUUUCAAUGAUUAGACATT against Ptpn20, the z-score is inactive: 0.609.

With GGCCUGAAAGACGAAGAGATT against Stk38, the z-score is inactive: -1.3.

Regarding CCACACCAAGGACUUAUGGTT against Cd164l1, the z-score is inactive: -1.44.

Take GGCGGAACACAUGACUAGGTT against Ilf3: the z-score is inactive: 1.06.

Consider GCCGGAAUGCCCUAAUUUCTT against Olfr684, for which the z-score was inactive: 2.

As for GGAAAGUUCUAAUGUUCAUTT against Sumo1, the z-score is inactive: -1.39.

Consider “GGUUCCAUGUGACAGUAGCTT against A930013K19”, for which the z-score is inactive: 2.04.

Regarding CCUAAGGCUGAAGCGGAGATT against Dusp9, the z-score is inactive: 0.444.

As for GGAGAUGUAUAAGAAAGCUTT against Rpl5, the z-score was inactive: -2.16.

With “GGAAAGUUCCCAUGUUCUCTT against 4933406M09Rik”, the z-score was inactive: -1.43.

CCGAUGCGCAAGUAAAAACTT against Tlx1: the z-score was inactive: 1.56.

For the sequence GCAGCUUAGUGAUUUGAAATT against Tex21, the z-score is inactive: -0.421.

Consider GGUAUUAGCAUGUACCUUCTT against Olfr138, for which the z-score is inactive: -1.62.

As to “GGUUCUGGACUUCAUCCUCTT against 4833422F24Rik”, the z-score is inactive: 2.14.

With GCUGUUCAUACCUAGUGGGTT against BC019206, the z-score was inactive: -0.819.

GGCGAAGAUUGAAAAAUGCTT against Ube3c: the z-score was inactive: 0.972.

With “CCUAUACAAGUAGGCAAUATT against 2310044G17Rik”, the z-score was inactive: -2.41.

In the case of GCUUAAAUUCUGUUCCAACTT against Ddx42, the z-score was inactive: -2.08.

On to GGUGCUCAAAGAAUGCAUUTT against Prkar1b, for which the z-score was inactive: -0.607.

As for GGCAACCAGUUGAAAUAUUTT against Mbnl3, the z-score is inactive: -1.33.

For “GGCUUUUCUAGUUCCUCAATT against 9130207N01”, the z-score is inactive: -0.899.

In the case of CAAGAUGAUUAUUAGAGAGTT against LOC380907, the z-score was inactive: 0.121.

For GGAGAUUGAAGAGUUUGACTT against Rangap1, the z-score was inactive: -1.39.

As for CGGUUUGAGUAUAUUGGAGTT against Sh3d19, the z-score was inactive: -0.0374.

Take GCCGUAACUCUUGACAAUGTT against Stoml2: the z-score is inactive: -1.32.

Consider “CCCUGCCUUCUGUUGAGAATT against 4930451I11Rik”, for which the z-score was inactive: -0.0526.

The record behind these values is PubChem BioAssay AID1347423 (Functional Genomics Laboratory (NCATS/FGL), 2020).
